In the supplement of paper PMC8256030:
The list shows a part of the results. Single values are uncertain here, since repeats match poorly.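 HEK293T cells were given each compound shortly before transfection with a reporter in which red mCherry is followed by the SARS-CoV-2 frameshift element and then GFP in the −1 frame, so GFP appears only after frameshifting.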

These molecules were tested on SARS-CoV-2 -1 PRF reporter mCherry-FSE-GFP(-1) (assay: percent effect, decrease of GFP/mCherry ratio (-1 PRF reporter) relative to controls; higher = stronger frameshift inhibition). Conditions: 10 µM; 24 h; HEK293T.

| Structure (SMILES) | percent effect [%] |
| --- | --- |
| O=c1n(Cl)c(=O)n(Cl)c(=O)n1Cl [symclosene] | -1.92 |
| CC(C)(C)NCC(O)c1ccc(O)c(O)c1 (configuration not stated) [colterol] | -1.61 |
| NN=C(N)N | -7.84 |
| COC(C)(C)CCCC(C)C/C=C/C(C)=C/C(=O)OC(C)C (configuration not stated) | -0.597 |
| CCCC(Cc1ccccc1)N1CCCC1 (configuration not stated) [prolintane] | -2.57 |
| CN1C(=O)COc2c(C(=O)NC3CN4CCC3CC4)cc(Cl)cc21 (configuration not stated) [azasetron] | -0.48 |
| CCCOC(=O)Cc1ccc(OCC(=O)N(CC)CC)c(OC)c1 [propanidid] | -0.373 |
| CN[C@]1(c2ccccc2Cl)CCCCC1=O [esketamine] | 1.23 |
| CCC1(CC)C(=O)NCC(C)C1=O (configuration not stated) [methyprylon] | 0.92 |
| C[C@H]1CC(=O)C[C@@H]2CC[C@H]3[C@@H]4CC[C@H](O)[C@@]4(C)CC[C@@H]3[C@]21C [mesterolone] | -0.109 |
| C[C@]12CCC(=O)C(O)=C1CC[C@@H]1[C@@H]2CC[C@@]2(C)[C@H]1CC[C@]2(C)O [oxymesterone] | -4.69 |
| CCC(C(N)=O)N1CCCC1=O (configuration not stated) [etiracetam] | -3.69 |
| O=C1CCO1 [propiolactone] | -8.84 |
| COc1cc2c(c(OC)c1OC)-c1ccc(OC)c(=O)cc1[C@@H](NC(C)=O)CC2 | -8.67 |
| C[C@]12CC[C@H](O)CC1=CC[C@@H]1[C@@H]2CC[C@]2(C)C(=O)CC[C@@H]12 | -1.1 |
| COc1ccc2c(c1OC)C(=O)O[C@@H]2[C@H]1c2cc3c(cc2CCN1C)OCO3 | -10.4 |
| CN1C(=O)C(O)N=C(c2ccccc2)c2cc(Cl)ccc21 (configuration not stated) [temazepam] | -5.21 |

Single entries from the list:
percent effect [%], NN=C(N)N reads -7.84
percent effect [%], O=C1CCO1 [propiolactone] reads -8.84
